Drawing on PubChem BioAssay AID1918931 (Molecular Pharmacology Branch, DTP, NCI, 2023), this text covers viability, T/C for 1 compound.

This assay has as its system 138582-337-R-J1-PDC complex spheroid viability. Description: Anticancer human tumor 138582-337-R-J1-PDC patient-derived Merkel cell tumor cell line growth inhibition. Conditions: compound 10 µM; stronger effect = lower value. An excerpt:
Multicellular complex tumor spheroid response to LSD1 Inhibitor Iadademstat in combination with a variety of drugs and investigational agents in selected tumor cell lines
The current study was undertaken to assess response to LSD1 inhibitors in combination with standard-of-care drugs and investigational agents in solid tumor complex spheroid models as well as in the K-562 leukemia. Complex spheroids include a stromal component modeled by human endothelial cells (HUVEC) and fibroblasts modeled by human mesenchymal stem cells (MSCs). The concentration ranges selected for each drug and investigational agent were based upon clinically achievable concentrations if the clinical Cmax of the agent was known.
Compounds. The drugs and investigational agents used in this study are listed on Table 1. All of the agents used, including staurosporine (NSC755774) and gemcitabine (NSC613327), were obtained from the Developmental Therapeutics Program, NCI. FDA-approved anticancer drugs are available from the NCI at http://dtp.nci.nih.gov/branches/dscb/oncology_drugset_explanation.html. Drugs and investigational agents were >95% pure by proton nuclear magnetic resonance (NMR) and liquid chromatography/mass spectrometry (LC/MS). […] If the clinical Cmax for an agent had not been determined, the highest concentration tested was 10 microM. […]

SMILES strings stand for the structures. Where “and” joins values, the source holds several entries; their conditions need not be identical. Equal values may be shown once. Further values from the same series stand in other lists.
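Note: spheroids exposed to agents for 7 days; 100% = DMSO vehicle control viability.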

As for `NC1CCC(NC2CC2c2ccccc2)CC1` (stereo unspecified), the viability, T/C (usually the result in the treated group divided by that in the control group, in per cent) was 89.8% and 75.6%.
